Results: patent US12653914B2, “Compounds for fast and efficient click release” (priority 2019, dated 2026)
At least one structure is not confirmed: it was looked up by name or label, or the drawing left a doubt.

Assay: Protein-protein conjugation via TCO linker and release in vitro, SDS-PAGE

Q: What does the source list for O=C(O[C@H]1/C=C/CC[C@@](O)(C(=O)ON2C(=O)CCC2=O)CC1)ON1C(=O)CCC1=O [Compound 1.23, (1S,4E,6R)-6-({[(2,5-Dioxopyrrolidin-1-yl)oxy]carbonyl}oxy)-1-hydroxycyclooct-4-ene-1-carboxylate]?
A: TCO cleavage of scFv dimer/trimer conjugated via 1.23 (SDS-PAGE) (excess of activator 2.17, overnight at 37° C.): strong increase in the 25 kDa band; TCO cleavage of scFv dimer/trimer conjugated via 1.23 (SDS-PAGE) (without activator, overnight at 37° C.): 25 kDa fragment band was almost undetectable
